Measurements from patent US20110105380A1, “Protection of Nano-Scale Particles from Immune Cell Uptake” (THE TRUSTEES OF THE UNIVERSITY OF PENNSYLVANIA, priority 2009, published 2011).
No constants are given. Whether binding was seen depends on the method and setting. Some entries that bind do so weakly or less than the wild type.

Chains of the proteins cited; added tags and fusions are not shown. Residues count along the entry.
UniProt P78324, residues 31-373: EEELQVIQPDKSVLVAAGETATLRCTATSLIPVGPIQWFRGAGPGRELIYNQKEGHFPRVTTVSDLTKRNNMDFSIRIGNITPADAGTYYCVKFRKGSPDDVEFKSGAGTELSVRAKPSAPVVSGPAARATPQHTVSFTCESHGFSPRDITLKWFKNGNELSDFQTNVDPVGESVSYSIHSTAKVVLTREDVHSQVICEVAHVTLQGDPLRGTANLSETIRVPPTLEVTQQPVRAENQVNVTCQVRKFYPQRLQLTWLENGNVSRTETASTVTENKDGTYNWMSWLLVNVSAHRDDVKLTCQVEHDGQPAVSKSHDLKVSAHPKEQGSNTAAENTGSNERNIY

Legend:
[1] = target: recombinant biotinylated human CD47 extracellular domain fused to CD4d3+4-biotin (human); assay: flow cytometry, soluble hSIRPα on hCD47-coated beads
[2] = target: recombinant biotinylated human CD47 extracellular domain fused to CD4d3+4-biotin (human); assay: flow cytometry, soluble hSIRPα on hCD47-coated beads, saturation binding

soluble human SIRPα extracellular domain fused to GST (SIRPα1-GST) (from UniProt P78324 31-373) (receptor)
binding [1]: binds | binding [2]: binds
